One compound from patent US7361279B2, “Removing metals from solution using metal binding compounds and sorbents therefor” (priority 2002, dated 2008) can be followed below.

A short description of this data set: Flow-through / column metal removal with benzotriazole and activated carbon. To be noted: molar excess of the metal by 30:1, hydraulic residence time at least two hours.

As for `Cc1ccc2[nH]nnc2c1` [5-MeBT, 5-methylbenzotriazole], the “metal concentration reduction on granular activated carbon” value was “at least a thousand fold concentration reduction”.
